Reference: publication PMC8510267
No constants are given. Whether binding was seen depends on the method and setting. Binding seen in cells or lysates may run through a third protein. Binding calls can cover weak binding; strength is not graded here. Where a sequence is shown, tags or fusion partners need not be part of it.

Target: FLAG-PABPC4 (not stated (human or pig cDNA cloned))
Assay: co-IP

binding | Binder
binds | myc-NDP52 (protein, UniProt Q13137 1-446) MEETIKDPPTSAVLLDHCHFSQVIFNSVEKFYIPGGDVTCHYTFTQHFIPRRKDWIGIFRVGWKTTREYYTFMWVTLPIDLNNKSAKQQEVQFKAYYLPKDDEYYQFCYVDEDGVVRGASIPFQFRPENEEDILVVTTQGEVEEIEQHNKELCKENQELKDSCISLQKQNSDMQAELQKKQEELETLQSINKKLELKVKEQKDYWETELLQLKEQNQKMSSENEKMGIRVDQLQAQLSTQEKEMEKLVQGDQDKTEQLEQLKKENDHLFLSLTEQRKDQKKLEQTVEQMKQNETTAMKKQQELMDENFDLSKRLSENEIICNALQRQKERLEGENDLLKRENSRLLSYMGLDFNSLPYQVPTSDEGGARQNPGLAYGNPYSGIQESSSPSPLSIKKCPICKADDICDHTLEQQQMQPLCFNCPICDKIFPATEKQIFEDHVFCHSL
binds | myc-MARCH8 (enzyme, UniProt Q5T0T0 1-291) MSMPLHQISAIPSQDAISARVYRSKTKEKEREEQNEKTLGHFMSHSSNISKAGSPPSASAPAPVSSFSRTSITPSSQDICRICHCEGDDESPLITPCHCTGSLHFVHQACLQQWIKSSDTRCCELCKYEFIMETKLKPLRKWEKLQMTSSERRKIMCSVTFHVIAITCVVWSLYVLIDRTAEEIKQGQATGILEWPFWTKLVVVAIGFTGGLLFMYVQCKVYVQLWKRLKAYNRVIYVQNCPETSKKNIFEKSPLTEPNFENKHGYGICHSDTNSSCCTEPEDTGAEIIHV
